Data as given in PubChem BioAssay AID1671195 (Yale University, 2021)
Assay: 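Genes whose knockdown alters LDL uptake in liver cancer cells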 (primary screen). System: human Huh7 hepatoma cells. Reagents: siRNA pool against human genes, 18 nM. Duration: about 2 to 2.5 days of knockdown, then 8 h LDL uptake. Conditions: DiI-labelled LDL at 30 µg/ml for 8 h, in lipoprotein-deficient serum medium. Read-out: 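Fluorescent LDL signal imaged in cells, scaled to the plate median, robust z-score for each replicate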. Direction: robust z-score: higher = more LDL uptake after knockdown. Active means: 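Active when two or more replicates show a robust z-score above 2 or below -2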.
The deposit covers about 22,000 reagents; below is a part drawn at random. About 1,510 of them (6.9%) were called active. 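Active includes knockdowns raising or lowering LDL uptake; positive z-scores mean more uptake, negative mean less.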 Entries without a mark were called inactive.

target	robust z-score, replicate 1	robust z-score, replicate 2	robust z-score, replicate 3
SCCPDH (GeneID 51097)	2.04	1.56	1.89
PIP4P1 (GeneID 90809)	2.62 (active)	2.86	3.64
PA2G4 (GeneID 5036)	-0.914	-1.6	-0.515
ANKS1A (GeneID 23294)	-0.21	-1.21	0.24
PCDHB2 (GeneID 56133)	0.0576	0.384	0.251
MCM8 (GeneID 84515)	-1.11	-0.595	-0.93
FCHSD2 (GeneID 9873)	-1.1	1.38	0.94
SLC7A2 (GeneID 6542)	-1.59	-1.6	-1.71
RHOXF2 (GeneID 84528)	2.85 (active)	2.24	2.22
SMPDL3B (GeneID 27293)	-0.306	0.72	0.478
SAMD12 (GeneID 401474)	0.613	0.418	0.465
LARS1 (GeneID 51520)	0.461	-0.242	-0.763
HSD17B13 (GeneID 345275)	0.103	-0.685	0.644
LINC00410 (GeneID 144776)	1.1	0.751	0.652
ETV2 (GeneID 2116)	-0.859	-0.62	-0.0445
EFHC1 (GeneID 114327)	-0.673	-1.47	-1.7
LOC392591 (retired record) (GeneID 392591)	-0.871	-0.931	-0.907
USP51 (GeneID 158880)	-0.522	-0.88	-0.56
OR7D4 (GeneID 125958)	0.242	-0.196	-0.851
AMPD3 (GeneID 272)	-1.16	-0.556	-0.986
LOC346305 (retired record) (GeneID 346305)	0.178	-0.302	-0.472
ADCY8 (GeneID 114)	-0.637	-0.403	-1.02

Records above called active (2):
target	robust z-score, replicate 1	robust z-score, replicate 2	robust z-score, replicate 3
PIP4P1 (GeneID 90809)	2.62 (active)	2.86	3.64
RHOXF2 (GeneID 84528)	2.85 (active)	2.24	2.22

Continued:
target	robust z-score, replicate 1	robust z-score, replicate 2	robust z-score, replicate 3
TYRP1 (GeneID 7306)	0.452	-0.232	0.597
DOK2 (GeneID 9046)	2.8	-0.78	0.173
ACKR2 (GeneID 1238)	0.15	0.0116	-0.432
SLC22A23 (GeneID 63027)	1.04	0.233	0.135
LOC441297 (retired record) (GeneID 441297)	-0.356	0.154	-0.016
MXRA8 (GeneID 54587)	0.233	0.711	0.0707
STK17B (GeneID 9262)	-1.58	-1.56	-2
CATSPERB (GeneID 79820)	-0.404	0.273	-0.222
PLAGL2 (GeneID 5326)	-1.15	-1.23	-1.14
OR6C75 (GeneID 390323)	-1.33	-0.847	-1.42
MS4A15 (GeneID 219995)	1.09	0.899	1.59
PRDM2 (GeneID 7799)	-0.235	-0.617	-0.216
TOM1L1 (GeneID 10040)	0.719	-1.01	-0.159
KTN1 (GeneID 3895)	-0.436	-0.354	-0.306
H1-4 (GeneID 3008)	0.207	-0.0443	0.222
MRGPRD (GeneID 116512)	-0.738	-0.23	-0.473
CERS5 (GeneID 91012)	-1.79	-1.62	-1.07
ST8SIA1 (GeneID 6489)	-0.398	-0.32	-1.95
MTERF3 (GeneID 51001)	-1.72	-0.206	-0.356
TIAL1 (GeneID 7073)	0.831	0.809	0.756
TMEM187 (GeneID 8269)	-0.97	-0.847	-0.711
SLC25A22 (GeneID 79751)	0.452	-1.69	-3.03
ZNF474 (GeneID 133923)	-1.01	-1.47	-0.627
BRD3 (GeneID 8019)	0.555	-0.681	-0.364
